Source: the supplement of paper PMC4604168 (melanoma cell lines)
This is one part of the list. Single values are uncertain, as repeats are few or missing.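 Imaging used 1,536-well plates; nuclei positive for cleaved PARP by antibody were divided by total DNA-stained nuclei to yield the apoptosis fraction. Doses for screening kept most cells viable, and cell lines differ markedly in resting and induced cleaved-PARP levels.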

Assays:
Test in all cases: cleaved PARP positive nuclei fraction relative to DMSO control; melanoma cells; higher = more apoptosis
Details in all cases: library dose: low library concentration; 72 h
MZ2-MEL = test system: MZ2-MEL
MeWo = test system: MeWo
RPMI7951 = test system: RPMI7951
RVH-421 = test system: RVH-421
SkMel28 = test system: SkMel28
SkMel2 = test system: SkMel2
SkMel30 = test system: SkMel30
SkMel5 = test system: SkMel5
UACC257 = test system: UACC257
UACC62 = test system: UACC62
WM115 = test system: WM115
WM1716 = test system: WM1716
WM1745 = test system: WM1745
WM3526 = test system: WM3526
WM3619 = test system: WM3619
WM451Lu = test system: WM451Lu

SMILES | cleaved PARP positive nuclei fraction (MZ2-MEL) [%] | cleaved PARP positive nuclei fraction (MeWo) [%] | cleaved PARP positive nuclei fraction (RPMI7951) [%] | cleaved PARP positive nuclei fraction (RVH-421) [%] | cleaved PARP positive nuclei fraction (SkMel28) [%] | cleaved PARP positive nuclei fraction (SkMel2) [%] | cleaved PARP positive nuclei fraction (SkMel30) [%] | cleaved PARP positive nuclei fraction (SkMel5) [%] | cleaved PARP positive nuclei fraction (UACC257) [%] | cleaved PARP positive nuclei fraction (UACC62) [%] | cleaved PARP positive nuclei fraction (WM115) [%] | cleaved PARP positive nuclei fraction (WM1716) [%] | cleaved PARP positive nuclei fraction (WM1745) [%] | cleaved PARP positive nuclei fraction (WM3526) [%] | cleaved PARP positive nuclei fraction (WM3619) [%] | cleaved PARP positive nuclei fraction (WM451Lu) [%]
O=C(O)c1ccc2c(c1)nc(Nc1cccc(Cl)c1)c1ccncc12 + COc1ccc(COc2ccc(Cc3cnc(N)nc3N)cc2OC)cc1 [GW2580] (first compound 0.4 µM, partner dose 1 µM) | 195 | 60.9 | 34.8 | 38.7 | 23.9 | 123 | 78.5 | 78.2 | 76.9 | 99.9 | 228 | 244 | 94 | 98.2 | 76 | 51.4
CS(=O)(=O)CCNCc1ccc(-c2ccc3ncnc(Nc4ccc(OCc5cccc(F)c5)c(Cl)c4)c3c2)o1 [lapatinib] + Cc1ccc(NC(=O)c2cccc(N(C)C)c2)cc1NC(=O)c1ccc(O)cc1 [ZM336372] (first compound 0.8 µM, partner dose 2 µM) | 170 | 24.2 | 158 | 36.4 | 172 | 100 | 88.3 | 218 | 191 | 52.7 | 65.6 | 108 | 101 | 56.5 | 103 | 105
Nc1nc(F)nc2c1ncn2[C@@H]1O[C@H](CO)[C@@H](O)[C@@H]1O [fludarabine] + COc1cc2c(Oc3ccc4[nH]c(C)cc4c3F)ncnc2cc1OCCCN1CCCC1 [cediranib] (first compound 0.2 µM, partner dose 0.4 µM) | 274 | 359 | 57 | 47.4 | 102 | 927 | 133 | 259 | 100 | 139 | 54.8 | 111 | 94.5 | 467 | 85.2 | 613
O=C(O)c1ccc2c(c1)nc(Nc1cccc(Cl)c1)c1ccncc12 + CN(NC(=O)CC(=O)NN(C)C(=S)c1ccccc1)C(=S)c1ccccc1 [STA4783] (first compound 0.4 µM, partner dose 0.006 µM) | 55 | 133 | 87.4 | 97.1 | 66.5 | 64.1 | 69.5 | 36.6 | 74.3 | 67.4 | 70.8 | 179 | 149 | 61.3 | 118 | 27.8
CS(=O)(=O)CCNCc1ccc(-c2ccc3ncnc(Nc4ccc(OCc5cccc(F)c5)c(Cl)c4)c3c2)o1 [lapatinib] + COc1cc2ncnc(Nc3ccc(Oc4ccccc4)cc3)c2cc1OC [SrcI1] (first compound 0.8 µM, partner dose 2 µM) | 131 | 114 | 74.1 | 149 | 199 | 79.2 | 84.1 | 78.2 | 66.5 | 118 | 51.9 | 61.2 | 89.3 | 69.3 | 96.9 | 48.6
Nc1ncn([C@H]2C[C@H](O)[C@@H](CO)O2)c(=O)n1 [decitabine] + COc1ccc(-c2ccc3c(N4CCOCC4)nc(N4C[C@@H](C)O[C@@H](C)C4)nc3n2)cc1CO [KU0063794] (first compound 0.1 µM, partner dose 0.02 µM) | 124 | 121 | 74.2 | 142 | 66.5 | 78.3 | 40.9 | 85.5 | 67.6 | 1070 | 114 | 33.1 | 104 | 78.6 | 103 | 273
C=C(c1ccc(C(=O)O)cc1)c1cc2c(cc1C)C(C)(C)CCC2(C)C [Bexarotene] + c1cc(-c2cnn3cc(-c4ccc(OCCN5CCCCC5)cc4)cnc23)ccn1 [Dorsomorphin] (first compound 2 µM, partner dose 0.4 µM) | 98.4 | 49.8 | 51.8 | 77.9 | 157 | 94.4 | 248 | 91 | 137 | 102 | 41.9 | 136 | 110 | 167 | 88.7 | 123
Cc1cc(Nc2cc(N3CCN(C)CC3)nc(/C=C/c3ccccc3)n2)n[nH]1 + COc1ccc(COc2ccc(Cc3cnc(N)nc3N)cc2OC)cc1 [GW2580] (first compound 0.04 µM, partner dose 1 µM) | 68.7 | 139 | 237 | 48.6 | 216 | 102 | 242 | 148 | 135 | 133 | 41.6 | 116 | 102 | 70.2 | 98.5 | 236
